The results in this text go back to US20250230242A1, “PHARMACEUTICAL COMPOSITION OF ANTI-TIM-3 ANTIBODY AND HYPOMETHYLATING AGENT” (NANJING SHUNXIN PHARMACEUTICALS CO., LTD. OF CHIATAI …, priority 2022, published 2025).

This assay deals with cynomolgus monkey TIM-3 recombinant protein (Acro) (cynomolgus monkey). As to the kind of experiment: ELISA on recombinant protein.

No constants are given. Whether binding was seen depends on the method and setting. Some entries that bind do so weakly or less than the wild type.

B1: humanized anti-TIM-3 antibody h50B5 (antibody, human IgG4 S228P, kappa, V domains shown)
VH: QVQLVQSGAEVKKPGASVKVSCKASGYSFTGYTINWVRQAPGQGLEWMGLFNPYNGGTTYAQKFQGRVTMTVDKSTSTVYMELSSLRSEDTAVYYCARRYYGYDAMDYWGQGTLVTVSS
VL: DIQMTQSPSSLSASVGDRVTITCKSSQSVLYSSNQKNHLAWYQQKPGKAPKLLIYWASTRESGVPSRFSGSGSGTDFTLTISSLQPEDFATYYCHQYLSSYTFGQGTKLEIKR
notes: Humanized from mouse mAb 50B5 by CDR grafting; human IgG4 heavy chain constant region and human light chain constant region
For the molecule B1, the binding entry was “binds”.
